{"source": "PubChem BioAssay AID504744, Drosophila RNAi Screening Center | 2011", "test": "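Find genes whose loss alters insulin-driven dAkt phosphorylation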 (primary screen)", "cell system": "Drosophila Kc167 cells", "reagents": "long dsRNA against Drosophila genes, 250 ng dsRNA per well of a 384-well plate", "time to read-out": "3 days of knock-down, then overnight serum-free starvation before stimulation", "treatment": "bovine insulin at 387 nM for 10 minutes after 12 h without serum", "read-out": "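Per-well phospho-dAkt level from an in-cell fluorescent antibody stain, divided by a DNA-dye signal; log2 residuals turned into z-scores that take cell number into account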", "active means": "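Hit in the insulin screen when the two-replicate mean z-score is more extreme than plus or minus 2.5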", "note": "The screen tested about 23,000 reagents; this is an unselected part of those with a known target gene and a result. Of all reagents, 98 (0.43%) got an active call. 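Only hit calls are given; the phospho-dAkt signals, z-scores and hit direction were not deposited.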 No sequences are given here."}
The first 2 entries, ahead of the listing:
{"target gene":"CG16756","DRSC id":"DRSC18115","call":"inactive"}
{"target gene":"Pif1A","DRSC id":"DRSC12708","call":"inactive"}

Results, from the first entry:
{"target gene":"CG16756","DRSC id":"DRSC18115","call":"inactive"}
{"target gene":"Pif1A","DRSC id":"DRSC12708","call":"inactive"}
{"target gene":"Pif1A","DRSC id":"DRSC14383","call":"inactive"}
{"target gene":"Ppn","DRSC id":"DRSC15328","call":"inactive"}
{"target gene":"firl","DRSC id":"DRSC02428","call":"inactive"}
{"target gene":"Vm26Ac","DRSC id":"DRSC02329","call":"inactive"}
{"target gene":"hmw","DRSC id":"DRSC16277","call":"inactive"}
{"target gene":"RpS5a","DRSC id":"DRSC20282","call":"inactive"}
{"target gene":"Ing3","DRSC id":"DRSC20002","call":"active"}
{"target gene":"l(2)efl","DRSC id":"DRSC04698","call":"inactive"}
{"target gene":"CG12715","DRSC id":"DRSC19492","call":"inactive"}
{"target gene":"CG14131","DRSC id":"DRSC10135","call":"inactive"}
{"target gene":"Pglym87","DRSC id":"DRSC15252","call":"inactive"}
{"target gene":"meru","DRSC id":"DRSC09400","call":"inactive"}
{"target gene":"meru","DRSC id":"DRSC09899","call":"inactive"}
{"target gene":"meru","DRSC id":"DRSC10215","call":"inactive"}
{"target gene":"Muc68D","DRSC id":"DRSC10569","call":"inactive"}
{"target gene":"CG12998","DRSC id":"DRSC19518","call":"inactive"}
{"target gene":"Ugt49B2","DRSC id":"DRSC16049","call":"inactive"}
{"target gene":"Patronin","DRSC id":"DRSC06756","call":"inactive"}
{"target gene":"Patronin","DRSC id":"DRSC06757","call":"inactive"}
{"target gene":"Patronin","DRSC id":"DRSC06994","call":"inactive"}
{"target gene":"CG5087","DRSC id":"DRSC10479","call":"inactive"}
